Test results: patent US20220251209A1
Changes are numbered by the printed parent chain. These are yes or no findings as the source states them, for the method shown. Some entries that bind do so weakly or less than the wild type.

T1: canine CTLA-4 (canine) (UniProt Q9XSI1)
T1 sequence: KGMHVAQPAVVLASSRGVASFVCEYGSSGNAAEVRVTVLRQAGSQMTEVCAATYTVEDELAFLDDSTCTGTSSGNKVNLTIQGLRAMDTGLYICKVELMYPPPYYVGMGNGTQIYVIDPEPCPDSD

B1: caninized 3B10 antibody c3B10L2-H3 (antibody, V domains shown)
VH: EVQLVQSGAEVKKPGASVKVSCKASGYTFTDYNMDWVRQAHGASLDWIGNINPNSESTSYNQKFKGKATLTVDKSTSTAYMELSSLRAGDIAVYYCTRDGNRYDAWFAYWGQGTLVTVSS
VL: QIVMTQTPLSLSVSPGEPASISCSASSSVTYMHWFQQKPGQSPQSLIYSTSILASGVPDRFSGSGSGTDFTLKISRVEADDAGVYYCQQRTSYPLTFGTGTKLELKR
B2: caninized 3B10 antibody c3B10L3-H3 (antibody, V domains shown)
VH: B1 VH
VL: B1 VL with M4L, Q44K, L46W
B3: caninized 3B10 antibody c3B10L3-H4 (antibody, V domains shown)
VH: B1 VH with V5Q, H41P, S84R, R87T
VL: B1 VL with M4L, Q44K, L46W
B4: caninized 3B10 antibody c3B10L3-H2 (antibody, V domains shown)
VH: B1 VH with H41P
VL: B1 VL with M4L, Q44K, L46W
B5: caninized 3B10 antibody c3B10L2-H2 (antibody, V domains shown)
VH: B1 VH with H41P
VL: B1 VL
B6: caninized 3B10 antibody c3B10L1-H1 (antibody, V domains shown)
VH: B1 VH with H41P, S44G, I48M, K67R, A68V, V72A, K74T
VL: B1 VL with Q1D, Q36R, Q37H
B7: chimeric mouse-canine anti-human CTLA-4 antibody 3B10 (antibody, V domains shown)
VH: EVQLQQFGAELVKPGASVKMSCKASGYTFTDYNMDWVRQSGKSLEWIGNINPNSESTSYNQKFKGKATLTVDKSSSTAYMELRSLTSDDTAVYYCTRDGNRYDAWFAYWGQGTLVTVSS
VL: QIVLTQSPAIMSASPGEKVTMTCSASSSVTYMHWFQQKPGTSPKLWIYSTSILASGVPARFSGSGSGTSYSLTISRMEAEDAATYYCQQRTSYPLTFGTGTKLELKR
B8: chimeric mouse-canine anti-human CTLA-4 antibody 8H5 (antibody, V domains shown)
VH: QVQLQQSGDDLVKPGASVKLSCKASGYTFTSYWINWIKQRPGQGLEWIGRIAPGSGTTYYNEVFKGKATLTVDKYSSTAYIQLSSLSSEDSAVYFCARGDYGSYWGQGTLVTVSS
VL: B7 VL with V29I, T30S, L45R, S49D, I52K, S75N, R76S, Q88H, T99A
B9: chimeric human-canine anti-human CTLA-4 antibody 411 (antibody, V domains shown)
VH: QVQLVESGGGVVQPGRSLRLSCVASGFTFSSHGMHWVRQAPGKGLEWVAVIWYDGRNKYYADSVKGRFTISRDNSKNTLFLQMNSLRAEDTAVYYCARGGHFGPFDYWGQGTLVTVSS
VL: EIVLTQSPGTLSLSPGERATLSCRASQSISSSFLAWYQQRPGQAPRLLIYGASSRATGIPDRFSGSGSGTDFTLTISRLEPEDFAVYYCQQYGTSPWTFGQGTKVEIKR
B10: chimeric human-canine anti-human CTLA-4 antibody 611 (antibody, V domains shown)
VH: QVQLVESGGGVVEPGRSLRLSCTASGFTFSSYGMHWVRQAPGKGLEWVAVIWYDGSNKHYADSAKGRFTISRDNSKNTLYLQMNSLRAEDTAVYYCARAGLLGYFDYWGQGTLVTVSS
VL: EIVLTQSPGTLSLSPGERATLSCRASQSVSSYLAWYQQKPGQAPRPLIYGVSSRATGIPDRFSGSGSGTDFTLTISRLEPEDFAVYYCQQYGISPFTFGPGTKVDIKR
B11: chimeric human-canine anti-human CTLA-4 antibody 418 (antibody, V domains shown)
VH: QVQLVESGGGVVQPGRSLRLSCTASGFTFSNYGMHWVRQAPGKGLEWVAVIWYDGSNKHYGDSVKGRFTISSDNSKNTLYLQMNSLRAEDTAVYYCARGERLGSYFDYWGQGTLVTVSS
VL: EIVLTQSPGTLSLSPGERATLSCRTSVSSSYLAWYQQKPGQAPRLLIYGASSRATGIPDRFSGSGSGTDFTLTISRLEPEDFAVYYCQQYGISPFTFGGGTKVEIKR
B12: chimeric mouse-canine anti-human CTLA-4 antibody 3B3 (antibody, V domains shown)
VH: EVKLVNSGGGLVQPGNSLRLSCATSGFTFTDFYMSWVRQPPGKALEWLGFVRNRANGYTTEYSVSVKGRFIISRDNFQSTLFLQMNTLRAEDSGTYYCVRGPGDTADYTMDYWGQGTSVTVSS
VL: QAVVTQESAFTTSPGGTVILTCRSSTGAVTTNNYANWVQEKPDHLFTGLIGGTSNRAPGVPVRFSGSLIGDKAALTITGAQTEDDGMYFCALWYTTHFVFGGGTKVTVLG

Target: T1, canine CTLA-4 (canine)
Assay: ELISA, canine CTLA-4

binding	Binder
binds	B1
binds	B2
binds	B3
binds	B4
binds	B5
binds	B6

Target: T1, canine CTLA-4 (canine)
Assay: ELISA, canine CTLA-4 (FIG. 2)

binding	Binder
binds	B7
binds	B2
binds	B3
binds	B4

Target: T1, canine CTLA-4 (canine)
Assay: ELISA, canine CTLA-4 coated (FIG. 1)

binding	Binder
binds	B7

Target: T1, canine CTLA-4 (canine)
Assay: ELISA, canine CTLA-4 coated, anti-dog IgG Fc-HRP

binding	Binder
binds	B7
binds	B8
binds	B9
binds	B10
binds	B11
binds	B12
